Measurements taken from PubChem BioAssay AID1487 (National Center for Advancing Translational Sciences (NCATS), 2009).
This is one part of the list. The main result of the screen is listed elsewhere. These columns were measured beside it and carry no call. The list favours compounds with an active or inconclusive main result. The note in brackets gives the kind of curve behind each potency; many fits are weak.

Assay: qHTS Assay for Modulators of Lamin A Splicing
Conditions: HeLa LMNA splicing GFP/RFP minigene ratio, 48 h
Summary of the method: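 S3 HeLa stable clones carrying a lamin A-EGFP splicing minigene plus DsRed2 were seeded at 600 cells/well in Opti-MEM with 2% FBS, pin-dosed and incubated 48 h at 37°C. Acumen cytometry (488 nm) gave the GFP/RFP total-intensity ratio.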

[1] = measured here: GFP splicing reporter channel
[2] = measured here: RFP viability control channel

| Structure (SMILES) | AC50 [1] | AC50 [2] |
| --- | --- | --- |
| O=C(Nc1cccc(C(=O)OCc2cc(=O)n3c4c(sc3n2)CCCC4)c1)c1cccc(F)c1 | 3.98 µM [falling, partial curve] | – |
| O=C1CC(c2ccccc2)CC(O)=C1C=NCc1ccccc1Cl (configuration not stated) | 7.08 µM [falling, partial curve] | 11.2 µM [falling, partial curve] |
| O=C1C=C(NC2CCCC2)CC(c2ccccc2)C1 (configuration not stated) | 11.2 µM [rising, partial curve] | 0.562 µM [rising, full curve, poor fit] |
| Cc1cccc(C)c1NC(=O)C1CCCCN1C (configuration not stated) | 0.708 µM [falling, partial curve, poor fit] | 12.6 µM [rising, partial curve, poor fit] |
| CCOC(=O)c1c(C)oc2cc(Br)c(OC(C)C(=O)OCC)cc12 (configuration not stated) | 14.1 µM [rising, single point] | – |
| COc1ccc(C2C(=O)c3ccccc3C2=O)cc1 | 3.55 µM [rising, single point] | – |
| Cc1ccc(NC(=O)CSc2ccccc2NC(=O)c2cccc(Cl)c2)cc1Cl | – | 35.5 µM [rising, single point] |
| O=C(Nc1ccc(Cc2ccncc2)cc1)c1cc([N+](=O)[O-])ccc1N1CCOCC1 | 1.26 µM [falling, full curve] | – |
| Cc1cccc(C(=O)N2CCc3cc(CNC(=O)Cc4ccc(F)cc4)ccc32)c1 | – | 5.01 µM [rising, full curve, poor fit] |
| Cc1ccc(Cc2nc3ccccc3nc2SCC(=O)NCc2ccc(F)cc2)cc1 | 0.794 µM [rising, single point] | – |
| CCc1ccccc1N(C)C(=O)c1cnc(N2CCOCC2)c2ccccc12 | 0.0891 µM [falling, full curve, poor fit] | 0.112 µM [falling, full curve, poor fit] |
| CCOc1cc(/C=C/c2nc3cc(C)c(C)cc3s2)ccc1OCC(=O)N1CCOCC1 | 28.2 µM [rising, partial curve, poor fit] | 35.5 µM [rising, single point] |
| [O-][N+]12CCN(CC1)c1ccccc12 | 31.6 µM [rising, single point] | 20 µM [rising, single point] |
| CCC(=O)C1=C(c2cccc([N+](=O)[O-])c2)N(C(=O)CC)n2c(nnc2-c2ccccc2)S1 | – | 35.5 µM [rising, partial curve, poor fit] |
| CC(/C=N/NC(=O)Cc1cc(=O)[nH][nH]1)=C\c1ccccc1 | 0.0224 µM [falling, full curve, poor fit] | 0.0316 µM [falling, full curve, poor fit] |
| CS(=O)(=O)Nc1cccc(-c2nc(Nc3ccccc3)c3ccccc3n2)c1 | 17.8 µM [falling, single point] | 35.5 µM [falling, single point] |
| O=C(NCc1ccccc1)c1ccccc1CO | – | 0.00447 µM [falling, full curve, poor fit] |

2 entries from above, set out differently.
Structure (SMILES) | AC50 [1] | AC50 [2]
O=C1CC(c2ccccc2)CC(O)=C1C=NCc1ccccc1Cl (configuration not stated) | 7.08 µM [falling, partial curve] | 11.2 µM [falling, partial curve]
CCOC(=O)c1c(C)oc2cc(Br)c(OC(C)C(=O)OCC)cc12 (configuration not stated) | 14.1 µM [rising, single point] | –

The list goes on.

| Structure (SMILES) | AC50 [1] | AC50 [2] |
| --- | --- | --- |
| Cc1cc([N+](=O)[O-])nn1CC(=O)Nc1cc(F)ccc1F | – | 0.00316 µM [falling, full curve, poor fit] |
| COc1cccc2[nH]c3c(N4CCCCC4)ncnc3c12 | 0.00891 µM [rising, full curve, poor fit] | 0.0126 µM [rising, full curve, poor fit] |
| CCC1(CC)Cc2ccccc2C(N)=C1C#N | – | 22.4 µM [rising, single point] |
| CC(C)(C)NC(=O)NC(=O)COC(=O)CNC(=O)c1cc(Cl)cc([N+](=O)[O-])c1 | 7.08 µM [rising, full curve, poor fit] | – |
| C#CCOCCOCCOCCNc1nc(N2CCN(C(=O)[C@H]([C@@H](C)O)n3cc(CCCCN)nn3)CC2)nc(N2CCN(C(=O)[C@H](C)n3cc(CCCN=C(N)N)nn3)CC2)n1 | 3.55 µM [falling, partial curve, poor fit] | – |
| C/C(Cl)=C\Cn1c(Nc2cccc(C)c2)nc2c1c(=O)n(C)c(=O)n2C | – | 0.0501 µM [rising, partial curve, poor fit] |
| CCOC(=O)N1CCN(S(=O)(=O)c2ccc(OCC)c3ccccc23)CC1 | 15.8 µM [rising, partial curve, poor fit] | 17.8 µM [rising, partial curve] |
| C[C@@H](CN(C)C)CN1c2ccccc2Sc2ccccc21 | – | 0.0355 µM [rising, full curve, poor fit] |
| COc1ccc(-c2cc(=O)n(-c3nc4ccccc4[nH]3)[nH]2)cc1 | – | 25.1 µM [rising, single point] |
| CC(=O)Nc1ccc(Cc2nc3ccccc3[nH]2)cc1 | 17.8 µM [rising, single point] | – |
| CN(C)c1ncnc2ccc(-c3ccc4c(c3)OCO4)cc12 | 22.4 µM [falling, partial curve, poor fit] | 20 µM [falling, partial curve] |
| Cc1ccc(C)c(N2CCN(C(=O)Cn3c(-c4cccs4)cc4ccccc43)CC2)c1 | 0.00282 µM [falling, full curve] | 0.01 µM [falling, full curve] |
| CCN(C(=O)Cn1cc(S(=O)(=O)Cc2ccccc2Cl)c2ccccc21)c1ccccc1 | 0.02 µM [falling, full curve, poor fit] | – |
| O=C(CNC(=O)C1CCCCC1)OCC(=O)c1ccc(Cl)s1 | – | 5.62 µM [falling, single point] |
| Cn1ccc(NC(=O)Nc2cccc([N+](=O)[O-])c2)n1 | – | 0.0224 µM [falling, full curve, poor fit] |
| Cc1cc(NC(=O)C2CCCCC2)ncc1NC(=O)c1ccccn1 | 22.4 µM [falling, partial curve] | 11.2 µM [falling, partial curve] |
| Cc1cccc(OCC(=O)O/N=C(\N)Cc2ccc(Cl)cc2)c1 | 35.5 µM [rising, single point] | – |
